{"source": "paper PMC6321117", "about": "“Sulfonamide Inhibition Studies of a New β-Carbonic Anhydrase from the Pathogenic Protozoan Entamoeba histolytica” (International Journal of Molecular Sciences, 2018)", "biological_target": "T1, EhiCA (β-carbonic anhydrase) (Entamoeba histolytica, UniProt C4LXK3)", "T1 sequence (C4LXK3 1-188)": "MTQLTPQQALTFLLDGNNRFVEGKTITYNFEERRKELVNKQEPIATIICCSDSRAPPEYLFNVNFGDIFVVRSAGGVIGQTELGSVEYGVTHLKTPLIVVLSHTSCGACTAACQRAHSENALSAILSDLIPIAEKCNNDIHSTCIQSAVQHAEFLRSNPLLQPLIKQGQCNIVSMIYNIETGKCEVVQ", "assay": "biochemical", "method": "An Sx.18Mv-R Applied Photophysics (Oxford, UK) stopped-flow instrument has been used to assay the catalytic activity of various CA isozymes for CO2 hydration reaction. […] The uncatalyzed rates were determined in the same manner and subtracted from the total observed rates. Stock solutions of inhibitors (0.1 mM) were prepared in distilled-deionized water, and dilutions up to 1 nM were done thereafter with the assay buffer. Enzyme and inhibitor solutions were pre-incubated together for 15 min before assay, to allow for the formation of the enzyme–inhibitor complex. The inhibition constants were obtained by non-linear least-squares methods using PRISM 3 and the Cheng–Prusoff equation, as reported earlier.", "key": {"[1]": {"settings": "KI EhiCA, β class, stopped-flow CO2 hydrase assay, 3 different assays, errors 5–10%"}}, "data": [{"smiles": "CC(=O)Nc1nnc(S(N)(=O)=O)s1", "note": "[AAZ, 5-acetamido-1,3,4-thiadiazole-2-sulfonamide]", "values": [{"measurement": "Ki", "setting": "KI (Acetazolamide) EhiCA, 20 °C, pH 8.3, 20 mM TRIS, 20 mM NaClO4, this work", "result": 509, "unit": "nM"}, {"measurement": "Ki", "setting": "[1]", "result": 509, "unit": "nM"}]}, {"smiles": "CCN[C@H]1C[C@H](C)S(=O)(=O)c2sc(S(N)(=O)=O)cc21", "note": "[DZA, dorzolamide]", "values": [{"measurement": "Ki", "setting": "[1]", "result": 6440, "unit": "nM"}]}]}
